Assay results published in US20100113421A1, “NON-NUCLEOSIDE REVERSE TRANSCRIPTASE INHIBITORS” (priority 2006, published 2010).
Some results were stated once for a whole list of compounds, not compound by compound.

Tested on: T-lymphoid cells
Test: Cytotoxicity by microscopic examination of cells in the spread assay
Type: cell-based
Settings: no cytotoxicity at concentrations of up to 8 micromolar; spread assay cultures

| Structure (SMILES) | cytotoxicity (lowest concentration at which a morphological change is observed) |
| --- | --- |
| Cc1cc(C)cc(S(=O)(=O)c2c(C(N)=O)[nH]c(C(=O)N(C)Cc3ccnc(Cl)c3F)c2C)c1 [Example 107, N5-[(2-chloro-3-fluoropyridin-4-yl)methyl]-3-[(3,5-dimethylphenyl)sulfonyl]-N5,4-dimethyl-1H-pyrrole-2,5-dicarboxamide] | > 8 micromolar |
| CC(C)c1c(C(=O)N(C)Cc2ccnc(Cl)c2F)[nH]c(C(N)=O)c1S(=O)(=O)c1ccccc1 [Example 108, N2-[(2-chloro-3-fluoropyridin-4-yl)methyl]-3-isopropyl-N2-methyl-4-(phenylsulfonyl)-1H-pyrrole-2,5-dicarboxamide] | > 8 micromolar |
| Cc1cc(C)cc(S(=O)(=O)c2c(C(N)=O)[nH]c(C(=O)N(C)Cc3ccncc3F)c2C)c1 [Example 109, 3-[(3,5-dimethylphenyl)sulfonyl]-N5-[(3-fluoropyridin-4-yl)methyl]-N5,4-dimethyl-1H-pyrrole-2,5-dicarboxamide] | > 8 micromolar |
| CC(C)c1c(C(=O)N(C)Cc2ccncc2F)[nH]c(C(N)=O)c1S(=O)(=O)c1ccccc1 [Example 110, N2-[(3-fluoropyridin-4-yl)methyl]-3-isopropyl-N2-methyl-4-(phenylsulfonyl)-1H-pyrrole-2,5-dicarboxamide] | > 8 micromolar |
| Cc1cc(C)cc(S(=O)(=O)c2c(C(N)=O)[nH]c(C(=O)N(C)Cc3c(F)cncc3F)c2C)c1 [Example 111, N5-[(3,5-difluoropyridin-4-yl)methyl]-3-[(3,5-dimethylphenyl)sulfonyl]-N5,4-dimethyl-1H-pyrrole-2,5-dicarboxamide] | > 8 micromolar |
| CC(C)c1c(C(=O)N(C)Cc2c(F)cncc2F)[nH]c(C(N)=O)c1S(=O)(=O)c1ccccc1 [Example 112, N2-[(3,5-difluoropyridin-4-yl)methyl]-3-isopropyl-N2-methyl-4-(phenylsulfonyl)-1H-pyrrole-2,5-dicarboxamide] | > 8 micromolar |
| Cc1cc(C)cc(S(=O)(=O)c2c(C(N)=O)[nH]c(C(=O)N(C)Cc3cc(Cl)ncc3F)c2C)c1 [Example 113, N5-[(2-chloro-5-fluoropyridin-4-yl)methyl]-3-[(3,5-dimethylphenyl)sulfonyl]-N5,4-dimethyl-1H-pyrrole-2,5-dicarboxamide] | > 8 micromolar |
| CC(C)c1c(C(=O)N(C)Cc2cc(Cl)ncc2F)[nH]c(C(N)=O)c1S(=O)(=O)c1ccccc1 [Example 114, N2-[(2-chloro-5-fluoropyridin-4-yl)methyl]-3-isopropyl-N2-methyl-4-(phenylsulfonyl)-1H-pyrrole-2,5-dicarboxamide] | > 8 micromolar |
| CC(C)c1c(C(=O)N(C)Cc2ccnc(N)c2F)[nH]c(C(N)=O)c1S(=O)(=O)c1ccccc1 [Example 115, N2-[(2-amino-3-fluoropyridin-4-yl)methyl]-3-isopropyl-N2-methyl-4-(phenylsulfonyl)-1H-pyrrole-2,5-dicarboxamide] | > 8 micromolar |
| Cc1c(C(=O)N(C)Cc2ccc(Cl)cc2Cl)[nH]c(C(N)=O)c1S(=O)(=O)N1CCCC1 [Example 116, N-(2,4-dichlorobenzyl)-N,3-dimethyl-4-(1-pyrrolidinylsulfonyl)-1H-pyrrole-2,5-dicarboxamide] | > 8 micromolar |
| Cc1c(C(=O)N(C)Cc2ccccc2Cl)[nH]c(C(=O)NCc2ccccn2)c1S(=O)(=O)N1CCCC1 [Example 117, N-(2-chlorobenzyl)-N,3-dimethyl-N′-(2-pyridinylmethyl)-4-(1-pyrrolidinylsulfonyl)-1H-pyrrole-2,5-dicarboxamide] | > 8 micromolar |
| Cc1c(C(=O)N(C)Cc2ccc(Cl)cc2Cl)[nH]c(C(N)=O)c1S(=O)(=O)N1CCCCC1 [Example 118, N-(2,4-dichlorobenzyl)-N,3-dimethyl-4-(1-piperidinylsulfonyl)-1H-pyrrole-2,5-dicarboxamide] | > 8 micromolar |
| Cc1c(C(=O)N(C)Cc2ccccc2Cl)[nH]c(C(N)=O)c1S(=O)(=O)N1CCCCC1 [Example 119, N-(2-chlorobenzyl)-N,3-dimethyl-4-(1-piperidinylsulfonyl)-1H-pyrrole-2,5-dicarboxamide] | > 8 micromolar |
